# Some of the results follow. The main result of the screen is listed elsewhere. These columns were measured beside it and carry no call. Most of these compounds were active or inconclusive in the main read-out, so they are no random draw. Potencies come from curve fits of mixed quality, noted in brackets.
# Test: qHTS Assay for Lipid Storage Modulators in Drosophila S3 Cells;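 on cell number change: cells counted by Cell Tracker Red CMTPX staining in the red channel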
# Details: BODIPY lipid droplet fluorescence, 18-24 h; for cell number change: measured here: cell count max response, cells fed with added oleic acid
# Procedure, shortened: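 Drosophila S3 cells got compounds at several concentrations plus oleic acid (400 uM solution). Laser-scanning cytometry with 488 nm excitation read lipid droplets at 500-530 nm and cells at 575-640 nm. Percent activity was relative to 20 uM Triacsin C.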
# [1] = measured here: lipid fluorescence (Fed channel) AC50, cells fed with added oleic acid
# [2] = measured here: cell number channel AC50, cells fed with added oleic acid
smiles,measurement,setting,value
CCc1nnc(NC(=O)c2cc(S(=O)(=O)N3CCCCC3)ccc2C)s1,cell number change,,10.7%
same,AC50,[1],"0.0082 µM [rising, full curve, poor fit]"
COc1ccc(C)cc1NC(=O)CN1C(=O)COc2ccc(C)cc21,cell number change,,-2.58%
same,AC50,[1],"3.66 µM [rising, single point]"
COc1ccc(CCNC(=O)C2CCN(S(=O)(=O)c3ccc(SC)cc3)CC2)cc1,cell number change,,-11.8%
COc1ccc(N2CCN(C(=O)COC(=O)CNC(=O)c3ccc(Cl)cc3Cl)CC2)cc1,cell number change,,-50%
same,AC50,[2],"0.82 µM [falling, full curve, poor fit]"
O=C(c1ccc(S(=O)(=O)Nc2ccccc2F)cc1)N1CCN(c2ccccc2O)CC1,cell number change,,29.3%
O=C(Nc1cccc(NC(=O)c2ccc3c(c2)OCO3)c1)c1ccccc1,AC50,[2],"2.31 µM [rising, partial curve]"
COc1nc(N)nc(N)c1NS(=O)(=O)c1ccc(C)cc1,cell number change,,28.7%
same,AC50,[1],"0.0461 µM [rising, full curve, poor fit]"
C=CCn1c(SCc2nc3cc(C(F)(F)F)ccc3c(=O)[nH]2)nc2sc(CC)cc2c1=O,cell number change,,1.9%
CN1CCN(NS(=O)(=O)c2ccc(Cl)cc2)CC1,cell number change,,6.96%
same,AC50,[1],"18.4 µM [rising, partial curve]"
Cc1ccc(-c2nnc(SCC(=O)O)n2N)cc1,cell number change,,-25.7%
same,AC50,[2],"0.259 µM [falling, full curve, poor fit]"
same,AC50,[1],"2.31 µM [falling, full curve]"
C/C(=N/NC(=O)c1ccc(Br)o1)c1ccncc1,cell number change,,-72.2%
same,AC50,[2],"5.8 µM [falling, single point]"
O=C(Cn1ccc(C(F)(F)F)n1)N/N=C/c1ccc(N2CCOCC2)cc1,AC50,[1],"0.184 µM [falling, partial curve]"
CCOc1cc(CNCc2cccs2)cc(Br)c1OCC,cell number change,,-21.9%
same,AC50,[1],"0.00517 µM [falling, full curve, poor fit]"
O=C(CN1CCCC1)NCc1ccccc1,cell number change,,10.5%
same,AC50,[1],"2.31 µM [rising, full curve]"
O=C(CNC(=O)c1ccco1)NCC(=O)OCc1cccc(Cl)c1,cell number change,,8.97%
same,AC50,[1],"4.61 µM [rising, full curve, poor fit]"
CC(C)(C)c1ccc(C(=O)Nc2ccc3c(c2)C(=O)NC3=O)cc1,cell number change,,21.3%
same,AC50,[1],"29.1 µM [rising, single point]"
N=c1oc2ccccc2cc1C(=O)NC1CCCCCC1,AC50,[2],"0.92 µM [rising, single point]"
same,AC50,[1],"29.1 µM [falling, single point]"
COc1ccc(/C=C2\Sc3ccc(C(=O)N4CCCC4)cc3N(C)C2=O)cc1OC,cell number change,,9.57%
same,AC50,[2],"3.66 µM [falling, partial curve, poor fit]"
CSc1ncccc1C(=O)OCC(=O)N(CC(C)C)C1CCS(=O)(=O)C1 (configuration not stated),cell number change,,17.7%
same,AC50,[1],"29.1 µM [rising, single point]"
Cc1cccc(NC(=O)C2CCCN2C(=O)OCC(C)C)c1 (configuration not stated),cell number change,,-6.47%
same,AC50,[2],"0.058 µM [falling, full curve, poor fit]"
Cc1cc(C(=O)N2CCCC(N3CCN(c4ccc(F)cc4)CC3)C2)c(C)o1 (configuration not stated),cell number change,,9.23%
same,AC50,[1],"4.11 µM [rising, partial curve]"
Clc1ccc2c(c1)C(N1CCNCC1)Cc1ccccc1S2 (configuration not stated),cell number change,,-83.8%
same,AC50,[2],"18.4 µM [falling, single point]"
same,AC50,[1],"29.1 µM [falling, single point]"
COCCNS(=O)(=O)c1ccccc1,cell number change,,48.4%
same,AC50,[2],"16.4 µM [rising, single point]"
O=C(O)c1cccc(NN=C2c3ccccc3-c3ccccc32)c1,cell number change,,34.6%
same,AC50,[1],"0.00461 µM [falling, full curve, poor fit]"
COc1cccc(-c2sc3ccc(OC)cc3c2C#CCC(C)O)c1 (configuration not stated),cell number change,,9.39%
same,AC50,[2],"0.0326 µM [rising, full curve, poor fit]"
same,AC50,[1],"0.00517 µM [falling, full curve, poor fit]"
CCOC(=O)c1c(C)[nH]c(C)c1C(=O)COC(=O)c1ccc(OC)cc1,AC50,[2],"5.8 µM [rising, single point]"
same,AC50,[1],"6.51 µM [rising, partial curve]"
CCC(=O)N(Cc1cc2c(C)ccc(C)c2[nH]c1=O)C1CCCCC1,AC50,[2],"4.11 µM [rising, partial curve]"
CCc1nnc(NC(=O)c2cc(-c3ccc(C)o3)nc3ccccc23)s1,cell number change,,-7.63%
same,AC50,[1],"1.03 µM [falling, full curve]"
CN1CC(c2ccc(Cl)c(Cl)c2)[C@@]2(COc3ccccc3C2=O)[C@@]12C(=O)Nc1ccccc12 (some centres not stated),cell number change,,37.4%
same,AC50,[2],"32.6 µM [rising, single point]"
CN(Cc1cnn(C)c1)C(=O)c1cc2ccccc2oc1=O,cell number change,,-23.4%
same,AC50,[2],"3.26 µM [falling, single point]"
CN(CC(=O)N1CCCCCC1)S(=O)(=O)c1ccc(Br)cc1,cell number change,,-30.4%
same,AC50,[2],"7.31 µM [falling, partial curve, poor fit]"
same,AC50,[1],"18.4 µM [falling, single point]"
COc1cccc(OCC(O)CN2CCC(Cc3ccccc3)CC2)c1 (configuration not stated),cell number change,,4.6%
same,AC50,[1],"1.03 µM [falling, full curve, poor fit]"
CN(C)c1ccc(/C=C/c2nc3ccccc3c(=O)[nH]2)cc1,AC50,[2],"6.51 µM [rising, single point]"
same,AC50,[1],"29.1 µM [falling, single point]"
CN(C)c1nc(-c2cccs2)cc(C(F)(F)F)c1C#N,cell number change,,2.18%
Cc1[nH]c2ccccc2c1-c1nc2ccccc2[nH]1,cell number change,,-31%
same,AC50,[2],"0.103 µM [falling, full curve, poor fit]"
O=C(NC1CCCCC1)NC1CCN(S(=O)(=O)c2ccc3c(c2)OCCO3)CC1,cell number change,,1.07%
same,AC50,[1],"13 µM [falling, partial curve, poor fit]"
O=C(NCCc1ccccc1)NC(Cc1ccccc1)C(=O)O (configuration not stated),cell number change,,2.7%
same,AC50,[1],"6.51 µM [falling, single point]"
Cc1nc(Nc2cccc(O)c2)c2c3c(sc2n1)CCC3,AC50,[1],"1.46 µM [rising, partial curve]"

# A portion of the results above:
smiles,measurement,setting,value
CN(CC(=O)N1CCCCCC1)S(=O)(=O)c1ccc(Br)cc1,cell number change,,-30.4%
same,AC50,[2],"7.31 µM [falling, partial curve, poor fit]"
same,AC50,[1],"18.4 µM [falling, single point]"
COc1cccc(OCC(O)CN2CCC(Cc3ccccc3)CC2)c1 (configuration not stated),cell number change,,4.6%
same,AC50,[1],"1.03 µM [falling, full curve, poor fit]"
CN(C)c1ccc(/C=C/c2nc3ccccc3c(=O)[nH]2)cc1,AC50,[2],"6.51 µM [rising, single point]"
same,AC50,[1],"29.1 µM [falling, single point]"
CN(C)c1nc(-c2cccs2)cc(C(F)(F)F)c1C#N,cell number change,,2.18%
Cc1[nH]c2ccccc2c1-c1nc2ccccc2[nH]1,cell number change,,-31%
same,AC50,[2],"0.103 µM [falling, full curve, poor fit]"
O=C(NC1CCCCC1)NC1CCN(S(=O)(=O)c2ccc3c(c2)OCCO3)CC1,cell number change,,1.07%
same,AC50,[1],"13 µM [falling, partial curve, poor fit]"
O=C(NCCc1ccccc1)NC(Cc1ccccc1)C(=O)O (configuration not stated),cell number change,,2.7%
same,AC50,[1],"6.51 µM [falling, single point]"
Cc1nc(Nc2cccc(O)c2)c2c3c(sc2n1)CCC3,AC50,[1],"1.46 µM [rising, partial curve]"
